PubChem BioAssay AID1224831 | NIAID | 2016
The whole screen tested about 3,500 reagents; this is a random part of them. 731 of all reagents (21%) were called active. 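Active means either lowered or raised reporter signal; the gene-median score did not drive the per-siRNA calls.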 The numbers tell different reagents against one gene apart.

- Purpose: 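Retesting screen hits on the TLR4-driven TNF response with six separate siRNAs each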 (follow-up of hits)
- Cells: human THP-1 B5 monocytic leukaemia cells carrying a TNF promoter luciferase reporter, made macrophage-like with PMA
- Knock-down reagent: single siRNA against human genes, 50 nM
- Time to read-out: about 68 h of knock-down, then 4 h LPS
- Challenge: LPS (Salmonella minnesota, TLR-grade) at 10 ng/ml for 4 h; PMA 5 ng/ml present during knock-down
- Read-out: 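Firefly to renilla luciferase ratio of a TNF promoter reporter after 4 h LPS, scaled to plate median, turned into robust z-score, averaged over replicates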
- Reading the numbers: TNF reporter z-score: higher = stronger LPS-induced TNF reporter signal; z-score, median over gene's siRNAs: higher = stronger TNF reporter signal across the gene's siRNAs
- Call rule: 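Two-sided call: reduced or raised TNF reporter signal counts as active once mean z reaches about -1 or below, or about 1.5 or above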
- Calls: active = changed TNF reporter (either direction); inactive = little change

Gene	reagent	TNF reporter z-score, replicate mean	z-score, median over gene's siRNAs	Outcome
PRKAG3	1	-0.53	0.5	inactive
PRKAG3	2	-0.23	0.5	inactive
PRKAG3	3	-0.02	0.5	inactive
PRKAG3	4	1.02	0.5	inactive
PRKAG3	5	1.12	0.5	inactive
PRKAG3	6	6.66	0.5	active
XPO1	1	2.33	2.6	active
XPO1	2	3.3	2.6	active
XPO1	3	2.86	2.6	active
XPO1	4	-0.55	2.6	inactive
XPO1	5	2.86	2.6	active
XPO1	6	1.55	2.6	active

A stretch taken from the entries so far:
Gene	reagent	TNF reporter z-score, replicate mean	z-score, median over gene's siRNAs	Outcome
PRKAG3	3	-0.02	0.5	inactive
PRKAG3	4	1.02	0.5	inactive
PRKAG3	5	1.12	0.5	inactive
PRKAG3	6	6.66	0.5	active
XPO1	1	2.33	2.6	active
XPO1	2	3.3	2.6	active

More results:
Gene	reagent	TNF reporter z-score, replicate mean	z-score, median over gene's siRNAs	Outcome
PHC3	1	-0.82	-0.12	inactive
PHC3	2	1.25	-0.12	inactive
PHC3	3	0.01	-0.12	inactive
PHC3	4	-0.25	-0.12	inactive
PHC3	5	-0.49	-0.12	inactive
PHC3	6	1.12	-0.12	inactive
TCF19	1	3.15	1.27	active
TCF19	2	1.91	1.27	active
TCF19	3	1.36	1.27	inactive
TCF19	4	1.18	1.27	inactive
TCF19	5	-0.06	1.27	inactive
TCF19	6	0.17	1.27	inactive
INIP	1	0.49	0.61	inactive
INIP	2	-0.73	0.61	inactive
INIP	3	0.73	0.61	inactive
INIP	4	3.42	0.61	active
INIP	5	1.61	0.61	active
INIP	6	0.16	0.61	inactive
SOX13	1	1.32	0.78	inactive
SOX13	2	0.74	0.78	inactive
SOX13	3	0.26	0.78	inactive
SOX13	4	-0.7	0.78	inactive
SOX13	5	1.19	0.78	inactive
SOX13	6	0.82	0.78	inactive
